Assay results from publication PMC12373910.
No constants are given. Whether binding was seen depends on the method and setting. Binding seen in cells or lysates may run through a third protein. A yes stands for co-enrichment or nearness to the bait. Other partners may have been found.

Target: FLAG-tagged Gnarl3 (orf92) expressed in wild E. coli (ECOR) hosts
Assay: affinity purification with mass spectrometry; FLAG-tagged AG expressed in wild ECOR strains; cleared cryomilled lysates on anti-FLAG magnetic agarose beads overnight at 4 °C; eluted with 3xFLAG peptide; triplicates, enrichment against orf74 control samples

Binder	binding
GalU (endogenous, wild E. coli hosts) (enzyme, UniProt P0AEP3 1-302) MAAINTKVKKAVIPVAGLGTRMLPATKAIPKEMLPLVDKPLIQYVVNECIAAGITEIVLVTHSSKNSIENHFDTSFELEAMLEKRVKRQLLDEVQSICPPHVTIMQVRQGLAKGLGHAVLCAHPVVGDEPVAVILPDVILDEYESDLSQDNLAEMIRRFDETGHSQIMVEPVADVTAYGVVDCKGVELAPGESVPMVGVVEKPKADVAPSNLAIVGRYVLSADIWPLLAKTPPGAGDEIQLTDAIDMLIEKETVEAYHMKGKSHDCGNKLGYMQAFVEYGIRHNTLGTEFKAWLEEEMGIKK	binds
GalF (endogenous, wild E. coli hosts) (protein, UniProt P0AAB6 1-297) MTNLKAVIPVAGLGMHMLPATKAIPKEMLPIVDKPMIQYIVDEIVAAGIKEILLVTHASKNAVENHFDTSYELESLLEQRVKRQLLAEVQSICPPGVTIMNVRQGEPLGLGHSILCARPAIGDNPFVVVLPDVVIDDASADPLRYNLAAMIARFNETGRSQVLAKRMPGDLSEYSVIQTKEPLDREGKVSRIVEFIEKPDQPQTLDSDIMAVGRYVLSADIWPELERTQPGAWGRIQLTDAIAELAKKQSVDAMLMTGDSYDCGKKMGYMQAFVKYGLRNLKEGAKFRKGIEKLLSE	binds
GalE (endogenous, wild E. coli hosts) (enzyme, UniProt P09147 1-338) MRVLVTGGSGYIGSHTCVQLLQNGHDVIILDNLCNSKRSVLPVIERLGGKHPTFVEGDIRNEALMTEILHDHAIDTVIHFAGLKAVGESVQKPLEYYDNNVNGTLRLISAMRAANVKNFIFSSSATVYGDQPKIPYVESFPTGTPQSPYGKSKLMVEQILTDLQKAQPDWSIALLRYFNPVGAHPSGDMGEDPQGIPNNLMPYIAQVAVGRRDSLAIFGNDYPTEDGTGVRDYIHVMDLADGHVVAMEKLANKPGVHIYNLGAGVGNSVLDVVNAFSKACGKPVNYHFAPRREGDLPAYWADASKADRELNWRVTRTLDEMAQDTWHWQSRHPQGYPD	binds
